PubChem BioAssay AID652243 – Drosophila RNAi Screening Center – 2013

Aim: 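Fly genes required for human androgen receptor driven transcription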 (primary screen)
Cell system: Drosophila S2R+ cells
Reagent: long dsRNA against Drosophila genes
Duration: 72 h (48 h, then 24 h hormone)
Conditions: synthetic androgen R1881 at 10 nM for 24 h
Read-out: 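Firefly light from an androgen-responsive reporter and Renilla control light per well, raw and unnormalised, for each of two replicates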
Scale: firefly reporter light: higher = more light from androgen-responsive reporter; Renilla control light: higher = more constitutive control signal (cell number, transfection)
Active means: 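Across duplicate plates, a knock-down whose log firefly/Renilla ratio shifted a set fold down or up from the GFP/LacZ control mean was a hit; the downward cut appears as both 1.5 and 3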
Calls: active = hit: reporter lowered or raised; inactive = no hit
The deposit covers about 24,000 reagents; shown is a random part of those with a known target gene and a result. Over the whole deposit, 246 (1%) are marked active. 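Plates not normalised; calls are printed but the firefly/Renilla ratio behind them is not deposited; fold cut for lowering reported inconsistently.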 Raw values are not corrected between plates. The numbers tell different reagents against one gene apart. Names joined by + are all predicted targets of the reagent. Not given: the amount of reagent.

| gene knocked down | reagent no. | firefly reporter light, replicate 1 | firefly reporter light, replicate 2 | Renilla control light, replicate 1 | Renilla control light, replicate 2 | Call |
| --- | --- | --- | --- | --- | --- | --- |
| mtTFB2 (GeneID 41228) | 1 | 66077 | 74150 | 1.34e6 | 1.19e6 | inactive |
| ValRS (GeneID 45783) | 1 | 1.33e6 | 1.21e6 | 1.46e6 | 1.12e6 | inactive |
| D19A (GeneID 38718) | 1 | 6.74e5 | 5.90e5 | 6.29e5 | 1.05e6 | inactive |
| D19A (GeneID 38718) | 2 | 4.83e5 | 3.48e5 | 8.43e5 | 3.84e5 | inactive |
| CG14868 (GeneID 41875) | 1 | 3.83e5 | 2.74e5 | 2.82e6 | 2.94e6 | inactive |
| CG14868 (GeneID 41875) | 2 | 2.10e5 | 1.96e5 | 5.37e5 | 8.66e5 | inactive |
| Karl (GeneID 32131) | 1 | 61047 | 49935 | 5.61e5 | 4.75e5 | inactive |
| CG7694 (GeneID 42230) | 1 | 1.06e5 | 2.58e5 | 1.62e6 | 2.69e6 | inactive |
| und (GeneID 34294) | 1 | 7.70e5 | 6.76e5 | 1.79e6 | 1.37e6 | inactive |
| CG42486 + CG14933 | 1 | 2.58e5 | 2.78e5 | 5.41e5 | 5.91e5 | inactive |
| sll (GeneID 42115) | 1 | 90312 | 70025 | 3.84e5 | 3.85e5 | inactive |
| sll (GeneID 42115) | 2 | 1.11e6 | 1.01e6 | 1.17e6 | 1.27e6 | inactive |
| CG17477 (GeneID 42067) | 1 | 87831 | 90933 | 2.19e6 | 1.71e6 | inactive |
| CG17477 (GeneID 42067) | 2 | 2.70e5 | 2.63e5 | 5.53e5 | 6.19e5 | inactive |
| PCNA (GeneID 37290) | 1 | 1.32e6 | 1.02e6 | 1.71e6 | 1.47e6 | inactive |
| Pdfr (GeneID 31234) | 1 | 3.56e5 | 5.10e5 | 3.85e6 | 4.21e6 | inactive |
| VAChT (GeneID 42795) | 1 | 1.41e5 | 1.43e5 | 2.01e5 | 3.11e5 | inactive |
| VAChT (GeneID 42795) | 2 | 27581 | 26093 | 3.51e5 | 4.08e5 | inactive |
| VAChT (GeneID 42795) | 3 | 4.39e5 | 2.97e5 | 1.12e6 | 5.37e5 | inactive |
| CG42306 + Gint3 | 1 | 8.51e5 | 9.12e5 | 1.77e6 | 2.02e6 | inactive |
| CG42306 + Gint3 | 2 | 3.63e5 | 4.14e5 | 8.66e5 | 8.92e5 | inactive |
| S-Lap1 (GeneID 38986) | 1 | 6.72e5 | 5.98e5 | 1.82e6 | 1.95e6 | inactive |
| CG17110 (GeneID 42729) | 1 | 1.87e5 | 2.26e5 | 2.74e6 | 2.63e6 | inactive |
| Nepl17 (GeneID 43408) | 1 | 2.09e5 | 2.75e5 | 2.37e6 | 3.32e6 | inactive |
| dlg1 (GeneID 32083) | 1 | 1.27e6 | 5.11e5 | 1.88e6 | 5.62e5 | inactive |
| dlg1 (GeneID 32083) | 2 | 1.57e5 | 1.52e5 | 3.19e6 | 3.02e6 | active |
| dlg1 (GeneID 32083) | 3 | 74464 | 94104 | 7.16e5 | 6.79e5 | inactive |
| dlg1 (GeneID 32083) | 4 | 4.85e5 | 4.51e5 | 8.17e5 | 8.17e5 | inactive |
| dlg1 (GeneID 32083) | 5 | – | – | – | – | inactive |
| Etf-QO (GeneID 36031) | 1 | 1.64e5 | 1.35e5 | 9.51e5 | 9.56e5 | inactive |
| Pcif1 (GeneID 40295) | 1 | 40221 | 57421 | 5.28e5 | 4.40e5 | inactive |
| Pcif1 (GeneID 40295) | 2 | 6.47e5 | 7.92e5 | 1.01e6 | 8.34e5 | inactive |
| CR31032 (GeneID 5740822) | 1 | 5.91e5 | 9.76e5 | 9.48e5 | 1.28e6 | inactive |
| CR31032 (GeneID 5740822) | 2 | 4.61e5 | 4.75e5 | 7.38e5 | 6.01e5 | inactive |
| sd (GeneID 32536) | 1 | 3.70e5 | 3.00e5 | 3.84e6 | 2.85e6 | inactive |
| sd (GeneID 32536) | 2 | 8.36e5 | 9.88e5 | 2.01e6 | 1.99e6 | inactive |
| sff (GeneID 39732) | 1 | 55544 | 68402 | 8.79e5 | 5.58e5 | inactive |
| sff (GeneID 39732) | 2 | – | – | – | – | inactive |
| sff (GeneID 39732) | 3 | – | – | – | – | inactive |
| NUCB1 (GeneID 39978) | 1 | 5.92e5 | 6.76e5 | 1.86e6 | 1.67e6 | inactive |
| NUCB1 (GeneID 39978) | 2 | 5.59e5 | 4.21e5 | 1.45e6 | 1.33e6 | inactive |

Laid out differently: 3 of the entries above.
{"gene knocked down":"Pdfr (GeneID 31234)","reagent no.":1,"firefly reporter light, replicate 1":3.56e5,"firefly reporter light, replicate 2":5.10e5,"Renilla control light, replicate 1":3.85e6,"Renilla control light, replicate 2":4.21e6,"Call":"inactive"}
{"gene knocked down":"VAChT (GeneID 42795)","reagent no.":1,"firefly reporter light, replicate 1":1.41e5,"firefly reporter light, replicate 2":1.43e5,"Renilla control light, replicate 1":2.01e5,"Renilla control light, replicate 2":3.11e5,"Call":"inactive"}
{"gene knocked down":"VAChT (GeneID 42795)","reagent no.":2,"firefly reporter light, replicate 1":27581,"firefly reporter light, replicate 2":26093,"Renilla control light, replicate 1":3.51e5,"Renilla control light, replicate 2":4.08e5,"Call":"inactive"}
